Article doi:10.1101/2019.12.13.875419
The exact form of at least one protein or probe is not confirmed.

Tested on: PkKKT2a central domain (C646 C649A) (Perkinsela CCAP 1560/4)
Experiment: fluorescence anisotropy
Conditions: similar affinity to wild type

TGCATGTTATGCAAGAATGCGTGTTTTACACCAAAACACCTTACATATTG (double strand) [50 mer CEN (BA1674)]
binding result: binds
